The structures appear in SMILES notation. This is one part of the list.

The experiment relates to T1, CTL2-GFP (C. trachomatis L2/434/Bu, GFP-expressing).
T1 construct: L2/434/Bu, GFP-expressing
More on the design: species or system HeLa; Intracellular C. trachomatis growth in HeLa cells, bulk GFP fluorescence relative to DMSO. The following applies: bulk GFP, single well; 28.5 h, 10 µM; inhibitor.
For the compound `COc1ccnc(N2CCCN(CC(N)=O)CC2)n1` [CBK083992], the “% of control remaining” value is reported as 128.479%.

For the compound `COc1ccc(-c2cc([C@H]3CN4CC[C@H]3C[C@@H]4CNC(C)=O)n(C)n2)cc1OC` [CBK288757], the “% of control remaining” value is recorded as 124.023%.

Regarding `COc1ccc(Br)cc1S(=O)(=O)Nc1ccsc1C(=O)Nc1ccc(F)cc1` [CBK004593], the “% of control remaining” value is given as 78.0333%.

Regarding `Cc1ccc(C(=O)N2CN(C(=O)CNC3CC3)CC2(C)C)cc1` [CBK089574C], the “% of control remaining” value is 124.146%.

On to `CC(=O)Nc1ccc(S(=O)(=O)N2CCCC(CO)C2)cc1` (stereo not shown) [CBK262108], for which the “% of control remaining” value amounted to 120.991%.

For the compound `Cc1ccc(C(=O)O)c(NC(=O)c2ccccc2F)c1` [CBK126744], the “% of control remaining” value is 74.6541%.

Consider `COc1ccc(C(=O)N2CCC3(CCN(C(=O)c4ccc5[nH]c(=O)[nH]c5c4)C3)C2)cc1OC` (stereo not shown) [CBK131793], for which the “% of control remaining” value is on record as 54.731%.

For `CCn1c(=O)n(CC(=O)N(C)C)c2cccnc21` [CBK282299], the “% of control remaining” value was found to be 143.624%.

On to `Cc1ccc(N2C(=O)CSC2c2ccc(Cl)cc2Cl)cc1` (stereo not shown) [CBK025673], for which the “% of control remaining” value amounted to 103.377%.

Consider `O=C(CSc1ccccn1)Nc1cccc(Cl)c1Cl` [CBK057679], for which the “% of control remaining” value amounted to 122.368%.

As to `Oc1ccc(Nc2cc(-c3ccc(Cl)cc3)ncn2)cc1` [CBK090751], the “% of control remaining” value worked out at 158.986%.

Regarding `CCC(C)NC(=O)C1=CCN(S(C)(=O)=O)C1` (stereo not shown) [CBK282861], the “% of control remaining” value is 95.8032%.

Take `CS(=O)(=O)c1ccc(-c2nccnc2N2CCCCC2CO)cc1` (stereo not shown) [CBK037657]: the “% of control remaining” value is 147.52%.

For `CCCS(=O)(=O)Nc1nccnc1N1CCN(c2cnccn2)CC1` [CBK048828], the “% of control remaining” value amounted to 95.4807%.

For `Cc1c(C(=O)Nc2cccc(S(=O)(=O)NCc3ccco3)c2)cnn1-c1ccccc1` [CBK297762], the “% of control remaining” value stood at 124.042%.

Turning to `Nc1nc(NCc2ccccc2)nc(-c2cc(Cl)ccc2O)n1` [CBK074526], the “% of control remaining” value turned out to be 63.0933%.

With `COc1ccc(CCNC(=O)Nc2ccccc2[N+](=O)[O-])cc1` [CBK266497], the “% of control remaining” value is 140.251%.

For the compound `CCOc1ccccc1NC(=O)Nc1cccc(S(N)(=O)=O)c1` [CBK057282], the “% of control remaining” value turned out to be 125.741%.

`OCCNc1nccnc1Cl` [CBK089793]: the “% of control remaining” value amounted to 92.9559%.

Turning to `CCSc1nc2ccccc2n1C(=O)c1ccc(S(=O)(=O)N2CCCCCC2)cc1` [CBK265825], the “% of control remaining” value came to 138.749%.

For the compound `Nc1ccc(-c2cnc(NCc3ccc4c(c3)OCO4)c(C(=O)Nc3ccc4c(c3)OCCO4)c2)cc1` [CBK138480T], the “% of control remaining” value amounted to 70.9408%.

Take `CC(=O)c1cccc(-c2nc(CC3CCN(C)CC3)nn2CCO)c1` [CBK306645]: the “% of control remaining” value is 95.4564%.

These data come from paper PMC12040169 (PLOS Biology, 2025).
